In PMC8672067, “Inhibitors of the Bub1 spindle assembly checkpoint kinase: synthesis of BAY-320 and comparison with 2OH-BNPP1” (Royal Society Open Science, 2021):
Results are given in words; binding and its absence hold for the method and conditions named. Binding seen in cells or lysates may run through a third protein. Some binding calls cover weakened binding; strength is not graded here. For some assays here: Where a sequence is shown, tags or fusion partners need not be part of it.

Protein sequences, listed by entry. Tags and fused reporters are not part of them.
UniProt O43684: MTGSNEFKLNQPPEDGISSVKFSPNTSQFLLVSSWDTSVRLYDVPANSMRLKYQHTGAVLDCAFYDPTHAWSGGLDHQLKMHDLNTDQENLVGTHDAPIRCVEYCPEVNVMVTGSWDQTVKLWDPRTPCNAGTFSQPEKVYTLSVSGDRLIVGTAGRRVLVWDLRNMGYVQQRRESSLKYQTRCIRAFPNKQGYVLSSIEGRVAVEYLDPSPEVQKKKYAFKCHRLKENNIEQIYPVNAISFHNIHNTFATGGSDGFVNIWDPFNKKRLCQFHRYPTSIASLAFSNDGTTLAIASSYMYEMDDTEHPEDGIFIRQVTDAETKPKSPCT

Key:
[1] = biological target: GFP-Bub1 (wild-type, full-length Bub1 with an N-terminal GFP tag) (human) (UniProt O43683); assay: co-IP; GFP-Bub1 captured from lysate of tetracycline-induced, nocodazole-treated (16-18 h) HEK-293 cells with purified GST-GFP-binder on glutathione sepharose beads, 4°C, at least 3 h; lysis buffer 0.1% Triton X-100, 100 mM NaCl, 10 mM Tris pH 7.4; beads washed five times; immunoblot for Bub3
[2] = biological target: T1, GFP-Bub1 K821R (catalytically inactive full-length Bub1 with an N-terminal GFP tag) (human) (UniProt O43683); assay: as above
T1 sequence: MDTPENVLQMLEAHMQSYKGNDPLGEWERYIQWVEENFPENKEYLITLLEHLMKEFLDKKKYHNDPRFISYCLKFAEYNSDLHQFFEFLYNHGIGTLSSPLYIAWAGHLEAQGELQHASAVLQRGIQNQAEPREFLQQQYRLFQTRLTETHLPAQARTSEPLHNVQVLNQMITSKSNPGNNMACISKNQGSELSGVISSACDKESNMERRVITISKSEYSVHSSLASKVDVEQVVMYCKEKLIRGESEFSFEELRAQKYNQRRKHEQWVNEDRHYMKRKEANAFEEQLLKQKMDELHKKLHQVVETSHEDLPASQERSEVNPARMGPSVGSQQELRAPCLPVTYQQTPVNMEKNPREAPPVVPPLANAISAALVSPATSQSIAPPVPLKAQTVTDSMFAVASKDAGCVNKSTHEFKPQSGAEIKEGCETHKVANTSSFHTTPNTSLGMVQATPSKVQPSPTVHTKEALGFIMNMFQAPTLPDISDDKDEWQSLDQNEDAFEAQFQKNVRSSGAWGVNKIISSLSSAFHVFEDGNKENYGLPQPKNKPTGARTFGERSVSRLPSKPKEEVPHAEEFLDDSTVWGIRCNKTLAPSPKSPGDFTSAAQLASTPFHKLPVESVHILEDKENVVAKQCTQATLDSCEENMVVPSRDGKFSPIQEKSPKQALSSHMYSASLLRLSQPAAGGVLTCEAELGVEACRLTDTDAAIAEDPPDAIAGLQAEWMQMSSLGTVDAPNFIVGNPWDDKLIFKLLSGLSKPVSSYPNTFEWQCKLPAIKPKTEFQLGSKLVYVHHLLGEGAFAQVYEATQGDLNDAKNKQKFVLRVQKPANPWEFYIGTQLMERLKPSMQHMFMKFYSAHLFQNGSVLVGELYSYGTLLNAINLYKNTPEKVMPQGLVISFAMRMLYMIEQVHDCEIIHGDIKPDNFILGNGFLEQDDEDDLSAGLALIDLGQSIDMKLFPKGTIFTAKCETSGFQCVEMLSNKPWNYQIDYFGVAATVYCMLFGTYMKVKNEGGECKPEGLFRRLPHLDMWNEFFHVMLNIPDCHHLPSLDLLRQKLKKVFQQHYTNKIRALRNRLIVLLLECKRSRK

- binding [1]: binds
- binding [2]: binds
Substance: Bub3 (from UniProt O43684 1-328)
